Earlier results, collected in patent publication US20260345508A1, “[…] CHLORIDE HYDRATE-CONTAINING SILICON NANOPARTICLE COMPOSITION AND TECHNOLOGY OF APPLYING SAME” (priority 2022, published 2026).
At least one structure is not confirmed: it was looked up by name or label, or the drawing left a doubt.

System: enveloped viruses in general, including the novel coronavirus (SARS-Co-2)

CCCCCCCCCCCCCCCC[n+]1ccccc1 [CPC, cetylpyridinium chloride hydrate]
Effectiveness against enveloped viruses: effective
